Data reported in the supplement of paper PMC6414424.
Where a name gives a salt, the structure may show the parent alone. ± gives the standard deviation of the averaged measurements. This is one part of the list.

tested on: APPdp1-6 iPSC-derived neurons; experiment: pThr231Tau/total Tau ratio Z-score vs DMSO vehicle wells; higher = more pThr231Tau relative to total Tau; settings: 5 µM; treatment time 5 days

SMILES | pThr231Tau/total Tau ratio Z-score
CCCN(CCC)CCc1cccc2c1CC(=O)N2 [Prestw-1158] | -0.616 ± 0.76
CSc1nc2cc(Cl)c(Oc3cccc(Cl)c3Cl)cc2[nH]1 | -0.344 ± 0.88
Cc1nc2ccccn2c(=O)c1CCN1CCC(C(=O)c2ccc(F)cc2)CC1 [Prestw-531] | 1.99 ± 3.2
O=C(CCNNC(=O)c1ccncc1)NCc1ccccc1 [Prestw-1099] | 1.45 ± 0.52
N/C(=N\C(=O)c1nc(Cl)c(N)nc1N)NCc1ccccc1 [Prestw-657] | -0.0851 ± 0.37
NC(=O)c1cnccn1 [Prestw-514] | 0.942 ± 0.44
CC1(C)S[C@@H]2[C@H](NC(=O)[C@H](N)c3ccccc3)C(=O)N2[C@H]1C(=O)O [Prestw-114] | -1.31 ± 0.19
O=C(O)c1cc(=O)[nH]c(=O)[nH]1 [Orotic acid] | 1.47 ± 0.55
O=c1n(CCCN2CCN(c3cccc(Cl)c3)CC2)nc2ccccn12 [Prestw-292] | 0.332 ± 1.2
CC(=O)NCCCCCC(=O)O [ACEXAMIC ACID    Therap cat: wound healing] | 2.24 ± 1.6
COc1ccc2cc([C@H](C)C(=O)O)ccc2c1 [Prestw-45] | -0.369 ± 0.35
C/C=C(/C(=C/C)c1ccc(O)cc1)c1ccc(O)cc1 [Prestw-798] | 1.15 ± 0.5
Cc1ncc([N+](=O)[O-])n1CC(C)O (stereo not given) [Prestw-1340] | -0.65 ± 0.29
O=C(O)c1ccccc1OP(=O)(O)O [Prestw-815] | -0.2 ± 0.41
CC1=C(/C=C/C(C)=C/C=C/C(C)=C/CO)C(C)(C)CCC1 [Vitamin A] | 0.969 ± 2.1
C=C1c2cccc(O)c2C(O)=C2C(=O)[C@]3(O)C(O)=C(C(N)=O)C(=O)[C@@H](N(C)C)[C@@H]3[C@@H](O)[C@H]12 [Prestw-964] | 0.672 ± 0.39
C/C(=C\C(=O)OCCCCCCCCC(=O)O)C[C@@H]1OC[C@H](C[C@@H]2O[C@H]2[C@@H](C)[C@H](C)O)[C@@H](O)[C@H]1O | 1.15 ± 1.9
CCc1cccc(CC)c1NC(=O)CN(CC(=O)O)CC(=O)O [Prestw-504] | -0.0716 ± 0.23
O=c1oc2cc(O)ccc2s1 [THIOXOLONE    Therap cat: antiseborrhoic] | 1.74 ± 0.83
Nc1ncnc2c1ncn2C1OC(COP(=O)(O)O)C(O)C1O (stereo not given) [Prestw-356] | 1.21 ± 1.5
CCOc1ccc2nc(S(N)(=O)=O)sc2c1 | 2.27 ± 2.3
C[C@@H]1C[C@H]2[C@@H]3CCC4=CC(=O)C=C[C@]4(C)[C@@]3(Cl)[C@@H](O)C[C@]2(C)[C@@]1(OC(=O)c1ccco1)C(=O)CCl [Prestw-572] | -1.08 ± 0.068
CN1CCCN(C(c2ccccc2)c2ccc(Cl)cc2)CC1 (stereo not given) [Prestw-283] | -1.05 ± 0.79
CC(C)OC(=O)C(C)(C)Oc1ccc(C(=O)c2ccc(Cl)cc2)cc1 [Prestw-275] | 0.232 ± 1.1
Cc1c(O)c(=O)n(-c2ccccc2)n1C [Prestw-30] | 0.659 ± 0.79

SMILES | pThr231Tau/total Tau ratio Z-score
NC(=O)CC[C@H](N)C(=O)O [L-Glutamine] | 1.97 ± 2.1
O=C1c2ccccc2C(=O)C1c1ccc(Br)cc1 [BROMINDIONE, anticoagulant] | 1.26 ± 0.67
CC=CC1=C(C(=O)O)N2C(=O)[C@@H](NC(=O)[C@H](N)c3ccc(O)cc3)[C@H]2SC1 [CEFPROZIL, antibacterial] | 1 ± 1.9
Cc1cc2c(s1)Nc1ccccc1N=C2N1CCN(C)CC1 [Prestw-1455] | -1.41 ± 0.42
CC(=O)N(c1onc(C)c1C)S(=O)(=O)c1ccc(N)cc1 [SULFISOXAZOLE ACETYL, antibacterial] | -0.575 ± 0.25
Cc1cc(O)cc(C)c1Cl | 0.644 ± 1.8
Oc1cccc(O)c1 [RESORCINOL    Therap cat:  keratolytic; antiseborheic] | 1.64 ± 2.5
CN1CCCN=C1/C=C/c1cccc(O)c1 [OXANTEL PAMOATE, anthelmintic] | 0.724 ± 1.2
CN1CCCN=C1/C=C/c1cccc(O)c1 [Prestw-398] | -0.335 ± 0.47
CC(N)CCCC(C)(C)O (stereo not given) [Prestw-15] | -0.359 ± 0.46
C=CC[C@@H]1C=C(C)C[C@H](C)C[C@H](OC)[C@H]2O[C@@](O)(C(=O)C(=O)N3CCCC[C@H]3C(=O)O[C@H](C(C)=C[C@@H]3CC[C@@H](O)[C@H](OC)C3)[C@H](C)[C@@H](O)CC1=O)[C@H](C)C[C@@H]2OC | 0.0896 ± 1.5
N[C@@H](Cc1cc(I)c(Oc2ccc(O)c(I)c2)c(I)c1)C(=O)O [Prestw-853] | -0.827 ± 0.35
Nc1c2ccccc2nc2ccccc12 [AMINACRINE    Therap cat: local antiseptic] | -1.45 ± 1.9
CN1CCC(=C2c3ccccc3Sc3ccccc32)CC1 [Prestw-294] | -1.69 ± 0.58
C#C[C@]1(O)CC[C@H]2[C@@H]3CCC4=CCCC[C@@H]4[C@H]3CC[C@@]21C [Prestw-95] | 0.471 ± 0.2
C[C@H](CCC(=O)O)[C@H]1CC[C@H]2[C@@H]3[C@@H](O)C[C@@H]4C[C@H](O)CC[C@]4(C)[C@H]3CC[C@]12C [Prestw-958] | 1 ± 0.56
O=C(CCCN1CCN(c2ccccn2)CC1)c1ccc(F)cc1 [Prestw-1117] | 0.142 ± 0.24
CC1CC(OC(=O)c2ccccc2O)CC(C)(C)C1 (stereo not given) [Prestw-1090] | 0.992 ± 0.45
COC(=O)C1=C(C#N)NC(C)=C(C(=O)OC(C)C)C1c1cccc([N+](=O)[O-])c1 (stereo not given) [Prestw-1154] | -0.552 ± 0.63
OCCN(CCO)c1nc(N2CCCCC2)c2nc(N(CCO)CCO)nc(N3CCCCC3)c2n1 [Prestw-142] | 1.88 ± 0.74
CN(c1nccc(=O)[nH]1)C1CCN(c2nc3ccccc3n2Cc2ccc(F)cc2)CC1 [Prestw-1506] | 0.291 ± 0.29
O=C(O)c1ccccc1C(=O)Nc1ccc(S(=O)(=O)Nc2nccs2)cc1 [Prestw-869] | -0.187 ± 0.15
C[N+](C)(C)CC(=O)O [Betaine] | 1.35 ± 1.2
C[C@]12CC[C@@H]3c4ccc(OC(=O)c5ccccc5)cc4CC[C@H]3[C@@H]1CC[C@@H]2O [ESTRADIOL BENZOATE    Therap cat: estrogen] | 0.176 ± 0.18
CN1CCN(C(c2ccccc2)c2ccccc2)CC1 [Prestw-510] | -0.386 ± 0.7

SMILES | pThr231Tau/total Tau ratio Z-score
CCN(CC)CCNC(C(=O)OCCC(C)C)c1ccccc1 (stereo not given) [Prestw-1498] | 0.348 ± 0.0042
C[C@@H]1C[C@H]2[C@@H]3CCC4=CC(=O)C=C[C@]4(C)[C@@]3(F)[C@@H](O)C[C@]2(C)[C@@]1(O)C(=O)COP(=O)(O)O | 1.64 ± 1.9
Cn1cnc([N+](=O)[O-])c1Sc1ncnc2nc[nH]c12 [Prestw-94] | 1.85 ± 1.2
CC(C)(CO)C(O)C(=O)NCCC(=O)O (stereo not given) [PANTOTHENIC ACID(d) Na salt, vitamin B5] | 0.0697 ± 0.9
COc1cccc2c1C(=O)c1c(O)c3c(c(O)c1C2=O)C[C@@](O)(C(C)=O)C[C@@H]3O[C@H]1C[C@H](N)[C@H](O)[C@H](C)O1 [Prestw-487] | -3.25 ± 1.9
C=CC1=C(C(=O)O)N2C(=O)[C@@H](NC(=O)/C(=N\O)c3csc(N)n3)[C@H]2SC1 [Prestw-1263] | -0.662 ± 1.2
OCc1ccccc1O[C@@H]1O[C@H](CO)[C@@H](O)[C@H](O)[C@H]1O [Salicin] | 0.99 ± 2
CC(=O)NS(=O)(=O)c1ccc(N)cc1 [SULFACETAMIDE    Therap cat:  Antibacterial] | 2.07 ± 2.3
CC(=O)NS(=O)(=O)c1ccc(N)cc1 [Prestw-14] | 0.312 ± 0.062
Cc1cn([C@H]2C=C[C@@H](CO)O2)c(=O)[nH]c1=O [Prestw-1279] | 0.733 ± 0.33
CCN(CC)CC(=O)Nc1c(C)cccc1C [Prestw-50] | -0.00552 ± 0.87
c1ccc2c(CC3=NCCN3)cccc2c1 [Prestw-46] | 0.196 ± 1.4
CC(=O)OCC(=O)[C@@]12OC(C)(C)O[C@@H]1C[C@H]1[C@@H]3C[C@H](F)C4=CC(=O)C=C[C@]4(C)[C@@]3(F)[C@@H](O)C[C@@]12C [Prestw-774] | 0.499 ± 0.61
CCC(C)CCCCC(=O)NCC[C@@H]1NC(=O)[C@H](CC(C)C)NC(=O)[C@H](CCN)NC(=O)[C@H](CC(C)C)NC(=O)[C@H](CCN)NC(=O)[C@H](CCN)NC(=O)[C@H](CCN)NC(=O)[C@H]([C@@H](C)O)NC1=O (stereo not given in full) | 0.919 ± 1.1
NC(N)=NC(=O)c1nc(Cl)c(N)nc1N [Prestw-7] | 0.663 ± 0.52
O=c1oc2c(O)c(O)cc3c(=O)oc4c(O)c(O)cc1c4c23 [Ellagic acid] | 0.774 ± 0.63
CO[C@@H]1[C@@H](O[C@@H]2O[C@H](C)[C@@H](O[C@H]3C[C@@](C)(O)[C@@H](OC(=O)CC(C)C)[C@H](C)O3)[C@H](N(C)C)[C@H]2O)[C@@H](CC=O)C[C@@H](C)[C@@H](O)/C=C/C=C/C[C@@H](C)OC(=O)C[C@H]1OC(C)=O [JOSAMYCIN, antibacterial] | 0.66 ± 0.046
CO[C@@H]1[C@@H](O[C@@H]2O[C@H](C)[C@@H](O[C@H]3C[C@@](C)(O)[C@@H](OC(=O)CC(C)C)[C@H](C)O3)[C@H](N(C)C)[C@H]2O)[C@@H](CC=O)C[C@@H](C)[C@@H](O)/C=C/C=C/C[C@@H](C)OC(=O)C[C@H]1OC(C)=O [Prestw-154] | -0.769 ± 0.017
c1coc(CNc2ncnc3nc[nH]c23)c1 [Prestw-659] | 0.69 ± 0.79
CC(=O)CC(c1ccccc1)c1c(O)c2ccccc2oc1=O (stereo not given) [Prestw-1363] | -0.848 ± 1.3
O=C1NS(=O)(=O)c2ccccc21 [SACCHARIN    Therap cat: sweetener] | 1.92
NS(=O)(=O)c1cc2c(cc1Cl)NC(C1CC3C=CC1C3)NS2(=O)=O (stereo not given) [Blocks the rapid desensitization of AMPA glutamate receptors] | 0.0669 ± 0.37
CN1C(=O)CC[C@H]1c1cccnc1 [Major metabolite of nicotine in humans] | 0.199 ± 0.098
CC[C@@H]1C(=O)OC[C@@H]1Cc1cncn1C [Prestw-449] | 0.935 ± 1.3
CCC1(C)OC(=O)N(C)C1=O (stereo not given) [PARAMETHADIONE, anticonvulsant] | -0.577 ± 0.95

Given as a markdown table: part of the list above

| SMILES | pThr231Tau/total Tau ratio Z-score |
| --- | --- |
| COc1cccc2c1C(=O)c1c(O)c3c(c(O)c1C2=O)C[C@@](O)(C(C)=O)C[C@@H]3O[C@H]1C[C@H](N)[C@H](O)[C@H](C)O1 [Prestw-487] | -3.25 ± 1.9 |
| c1ccc2c(CC3=NCCN3)cccc2c1 [Prestw-46] | 0.196 ± 1.4 |
| CO[C@@H]1[C@@H](O[C@@H]2O[C@H](C)[C@@H](O[C@H]3C[C@@](C)(O)[C@@H](OC(=O)CC(C)C)[C@H](C)O3)[C@H](N(C)C)[C@H]2O)[C@@H](CC=O)C[C@@H](C)[C@@H](O)/C=C/C=C/C[C@@H](C)OC(=O)C[C@H]1OC(C)=O [Prestw-154] | -0.769 ± 0.017 |
| CC(=O)CC(c1ccccc1)c1c(O)c2ccccc2oc1=O (stereo not given) [Prestw-1363] | -0.848 ± 1.3 |
| CN1C(=O)CC[C@H]1c1cccnc1 [Major metabolite of nicotine in humans] | 0.199 ± 0.098 |
